# In PubChem BioAssay (Tox21):
# By UniProt entry, the sequences of proteins in these tests, tags left out. Where a name states a change or a piece, a line headed by the entry shows the natural chain unless it says otherwise.
# UniProt P10635, whole entry, looked up: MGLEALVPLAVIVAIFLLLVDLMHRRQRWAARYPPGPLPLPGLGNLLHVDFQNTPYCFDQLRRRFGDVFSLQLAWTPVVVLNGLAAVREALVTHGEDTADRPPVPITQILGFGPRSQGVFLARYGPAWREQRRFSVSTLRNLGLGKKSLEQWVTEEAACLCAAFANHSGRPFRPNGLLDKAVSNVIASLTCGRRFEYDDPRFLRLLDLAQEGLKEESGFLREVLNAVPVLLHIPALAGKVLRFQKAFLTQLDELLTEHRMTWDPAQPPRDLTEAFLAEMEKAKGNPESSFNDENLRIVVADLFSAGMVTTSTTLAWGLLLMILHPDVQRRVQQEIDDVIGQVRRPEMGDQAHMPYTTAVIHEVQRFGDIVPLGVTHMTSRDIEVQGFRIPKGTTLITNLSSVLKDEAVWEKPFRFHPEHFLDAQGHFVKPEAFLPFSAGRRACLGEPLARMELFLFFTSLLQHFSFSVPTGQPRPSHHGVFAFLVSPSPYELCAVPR
# UniProt P08684, whole entry, looked up: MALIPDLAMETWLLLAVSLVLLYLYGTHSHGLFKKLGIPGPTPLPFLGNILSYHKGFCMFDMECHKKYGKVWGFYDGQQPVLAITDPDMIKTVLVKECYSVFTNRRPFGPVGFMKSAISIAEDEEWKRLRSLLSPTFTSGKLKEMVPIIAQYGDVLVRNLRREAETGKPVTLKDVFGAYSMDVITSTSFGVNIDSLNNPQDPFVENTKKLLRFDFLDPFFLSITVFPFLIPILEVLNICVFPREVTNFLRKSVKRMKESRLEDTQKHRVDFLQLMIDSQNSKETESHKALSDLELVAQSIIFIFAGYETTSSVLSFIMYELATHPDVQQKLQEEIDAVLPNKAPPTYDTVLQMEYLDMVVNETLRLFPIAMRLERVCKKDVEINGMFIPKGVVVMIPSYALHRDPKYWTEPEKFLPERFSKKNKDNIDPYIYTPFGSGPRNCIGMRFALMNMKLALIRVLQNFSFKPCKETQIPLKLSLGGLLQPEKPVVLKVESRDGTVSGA
# UniProt Q12809: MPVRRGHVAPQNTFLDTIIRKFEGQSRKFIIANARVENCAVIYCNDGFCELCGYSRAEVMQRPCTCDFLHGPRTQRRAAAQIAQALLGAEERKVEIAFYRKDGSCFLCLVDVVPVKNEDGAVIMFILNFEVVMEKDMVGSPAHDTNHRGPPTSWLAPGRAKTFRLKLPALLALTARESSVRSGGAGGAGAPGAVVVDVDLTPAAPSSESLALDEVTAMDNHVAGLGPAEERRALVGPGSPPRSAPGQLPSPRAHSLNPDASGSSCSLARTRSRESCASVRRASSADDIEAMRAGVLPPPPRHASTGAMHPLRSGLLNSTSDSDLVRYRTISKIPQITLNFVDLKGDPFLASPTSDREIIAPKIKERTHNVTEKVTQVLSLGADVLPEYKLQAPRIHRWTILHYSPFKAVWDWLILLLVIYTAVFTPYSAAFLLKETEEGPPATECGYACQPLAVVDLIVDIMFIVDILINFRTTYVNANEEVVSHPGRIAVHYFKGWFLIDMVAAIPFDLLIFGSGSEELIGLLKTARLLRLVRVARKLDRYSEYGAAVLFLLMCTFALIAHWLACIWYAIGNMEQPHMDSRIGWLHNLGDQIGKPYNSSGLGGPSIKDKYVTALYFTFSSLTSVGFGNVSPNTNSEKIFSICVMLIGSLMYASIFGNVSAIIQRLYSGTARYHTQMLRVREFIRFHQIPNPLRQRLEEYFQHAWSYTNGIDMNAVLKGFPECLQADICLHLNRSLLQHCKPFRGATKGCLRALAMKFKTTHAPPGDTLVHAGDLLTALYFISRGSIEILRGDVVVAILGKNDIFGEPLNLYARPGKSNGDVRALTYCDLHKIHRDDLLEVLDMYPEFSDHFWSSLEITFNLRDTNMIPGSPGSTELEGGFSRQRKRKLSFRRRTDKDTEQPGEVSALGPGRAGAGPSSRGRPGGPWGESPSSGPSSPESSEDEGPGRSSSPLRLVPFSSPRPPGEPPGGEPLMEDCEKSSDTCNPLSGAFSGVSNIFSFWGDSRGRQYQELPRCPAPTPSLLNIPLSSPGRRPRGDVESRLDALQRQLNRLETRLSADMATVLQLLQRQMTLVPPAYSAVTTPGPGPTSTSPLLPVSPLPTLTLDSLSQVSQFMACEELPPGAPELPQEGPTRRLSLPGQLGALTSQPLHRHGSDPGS
# UniProt P05177, whole entry, looked up: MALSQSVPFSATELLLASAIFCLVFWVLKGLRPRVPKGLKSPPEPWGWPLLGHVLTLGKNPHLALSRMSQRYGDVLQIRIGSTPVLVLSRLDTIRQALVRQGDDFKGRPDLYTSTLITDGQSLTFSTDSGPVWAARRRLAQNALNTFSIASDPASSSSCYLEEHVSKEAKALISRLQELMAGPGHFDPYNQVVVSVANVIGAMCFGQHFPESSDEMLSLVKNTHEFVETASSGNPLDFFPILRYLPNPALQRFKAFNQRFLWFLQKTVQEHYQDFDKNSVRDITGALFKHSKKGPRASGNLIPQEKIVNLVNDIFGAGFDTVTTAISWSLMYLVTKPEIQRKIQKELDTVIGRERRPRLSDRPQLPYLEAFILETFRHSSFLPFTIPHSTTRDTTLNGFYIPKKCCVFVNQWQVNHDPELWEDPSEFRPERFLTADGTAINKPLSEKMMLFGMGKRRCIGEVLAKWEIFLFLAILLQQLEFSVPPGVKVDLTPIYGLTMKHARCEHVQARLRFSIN
# UniProt P33261, whole entry, looked up: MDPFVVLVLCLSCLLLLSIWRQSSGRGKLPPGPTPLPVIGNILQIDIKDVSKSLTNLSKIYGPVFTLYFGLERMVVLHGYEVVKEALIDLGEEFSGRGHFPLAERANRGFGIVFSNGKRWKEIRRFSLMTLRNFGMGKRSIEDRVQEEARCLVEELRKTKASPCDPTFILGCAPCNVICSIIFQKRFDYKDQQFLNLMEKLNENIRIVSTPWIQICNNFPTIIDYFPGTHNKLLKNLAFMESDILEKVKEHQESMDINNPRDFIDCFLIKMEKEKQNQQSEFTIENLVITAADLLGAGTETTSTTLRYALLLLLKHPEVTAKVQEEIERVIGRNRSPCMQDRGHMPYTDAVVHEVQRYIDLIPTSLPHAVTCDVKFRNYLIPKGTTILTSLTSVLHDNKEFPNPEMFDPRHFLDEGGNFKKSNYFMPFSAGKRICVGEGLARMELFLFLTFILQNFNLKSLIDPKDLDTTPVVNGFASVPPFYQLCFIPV
# The inconclusive results got no clear call from the source; some entries with a clear call stand among them for comparison. Potencies of inconclusive entries are doubtful fits and often do not repeat. Activity calls are given as the source filed them. Calls come from the whole dose curve; as a rule, active = well fitted curve in the direction sought with a large enough effect in the repeat runs; inconclusive = weak or mixed curves; inactive = no such curve, though single readings can be large; an effect the other way counts as inactive or inconclusive.
# Tests used:
# [1] = molecular target: Cytochrome P450 2D6 (Homo sapiens) (UniProt P10635); experiment: Cytochrome P450 Family 2 Subfamily D Member 6 (CYP2D6) small molecule antagonists: luciferase reporter qHTS assay (AID 1671196); note: nearly all actives have a fitted effect of over 50% in size
# How it was run: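 CYP2D6 enzyme–substrate mix was held with compound for 10 min at room temperature, then NADPH regeneration solution was added and the reaction ran 1 h at room temperature. Luciferin product was detected by luminescence after 20 min with detection reagent.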
# [2] = molecular target: Cytochrome P450 3A4 (Homo sapiens) (UniProt P08684); experiment: Cytochrome P450 Family 3 Subfamily A Member 4 (CYP3A4) small molecule antagonists: luciferase reporter qHTS assay (AID 1671201); note: nearly all actives have a fitted effect of over 50% in size
# How it was run: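 CYP3A4 activity was followed with a P450-Glo proluciferin substrate. Test compounds in DMSO were preincubated 10 min; NADPH regeneration then ran 1 h, and light output was read 20 min after detection reagent.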
# [3] = molecular target: Voltage-gated inwardly rectifying potassium channel KCNH2 (Homo sapiens) (UniProt Q12809); experiment: Human Ether-a-go-go-Related Gene (hERG) channel small molecule antagonists: fluorescence cell-based qHTS assay (AID 1671200); note: nearly all actives have a fitted effect of over 50% in size
# How it was run: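 In this thallium-flux screen, overnight-cultured U2OS cells bearing the channel are dye-loaded in darkness for an hour, rested 10 min at room temperature, and then monitored kinetically at 480/540 nm for two minutes post-stimulus.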
# [4] = molecular target: Cytochrome P450 1A2 (Homo sapiens) (UniProt P05177); experiment: Cytochrome P450 Family 1 Subfamily A Member 2 (CYP1A2) small molecule antagonists: luciferase reporter qHTS assay (AID 1671199); note: nearly all actives have a fitted effect of over 50% in size
# How it was run: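 Human CYP1A2 activity measured with a P450-Glo proluciferin substrate; compounds in DMSO preincubated 10 min at room temperature with enzyme-substrate mix, then NADPH regeneration system added for 1 h. Luciferin detection reagent, 20 min, luminescence read.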
# [5] = molecular target: Cytochrome P450 2C19 (Homo sapiens) (UniProt P33261); experiment: Cytochrome P450 Family 2 Subfamily C Member 19 (CYP2C19) small molecule antagonists: luciferase reporter qHTS assay (AID 1671197); note: nearly all actives have a fitted effect of over 65% in size
# How it was run: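 P450-Glo CYP2C19 screening system; proluciferin substrate; DMSO compound stocks; 10 min RT preincubation; NADPH regeneration, 1 h at 37C; luciferin detection reagent, 20 min RT; luminescence as RLU.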
# Potency is the fitted concentration of half-maximal effect.
smiles,measurement,setting,value
O=C(c1ccc(O)cc1)c1ccc(O)cc1,Potency,[1],"inconclusive: 71 µM [inhibitor, partial curve]"
same,Potency,[2],"inconclusive: 35.6 µM [inhibitor, partial curve]"
C#CCN(C)CCCOc1ccc(Cl)cc1Cl,Potency,[1],active: 1.55 µM
same,Potency,[3],active: 8.49 µM
CC(O)CNCC(C)O (stereo not given),Potency,[1],"inconclusive: 71.4 µM [inhibitor, partial curve]"
same,Potency,[4],"inconclusive: 71.4 µM [inhibitor, partial curve, poor fit] and inactive"
CC(C)C1OCCN1CCOC(=O)NCCCCCCNC(=O)OCCN1CCOC1C(C)C (stereo not given),Potency,[1],active: 63.3 µM
same,Potency,[2],active: 10 µM
CCCCCCCN,Potency,[1],"inconclusive: 36.3 µM [inhibitor, partial curve]"
same,Potency,[4],"inconclusive: 81.2 µM [inhibitor, single point]"
same,Potency,[3],"inconclusive: 39.7 µM [inhibitor, partial curve]"
CCCCOCC,Potency,[1],inactive
same,Potency,[2],"inconclusive: 63.3 µM [inhibitor, partial curve, poor fit]"
CN(C)CCCCl,Potency,[5],inactive
O=C(O)c1c(O)c(-c2ccccc2)nc2ccccc12,Potency,[5],"inconclusive: 43.6 µM [inhibitor, single point]"
CCCCCCCC(OC)OC,Potency,[1],inactive
same,Potency,[4],inactive
CCCCCCCCCCCC[N+](C)(C)CC(=O)[O-],Potency,[1],"inconclusive: 39.9 µM [inhibitor, single point]"
same,Potency,[3],inactive
Cc1ccc(=O)n(-c2ccccc2)c1,Potency,[5],"inconclusive: 3.89 µM [inhibitor, single point]"
